Some of the results follow.
Target: OsWRKY34 (Oryza sativa, UniProt Q0JBA9 1-250)
Assay: protein-binding microarray (RPBM); PBS, 2% BSA, 51.3 ng/ul salmon testes DNA, 50 uM zinc acetate, 200 nM TF, 25 C, 1 h; high values mean tight binding
Conditions: protein: recombinant; tags: N-terminal polyhistidine and DsRed monomer fusion (pET32a); label: CyDye5-dUTP incorporated in the synthesized complementary strand; 3' TTTTT single-stranded linker to array surface; dsDNA, one strand shown
Procedure, shortened: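 The binding signal is fluorescence intensity per array feature (arbitrary units). Readings came from an Axon 4000B scanner after a washed, 2% BSA-blocked, double-stranded custom Agilent array had been incubated for 1 h at 25 °C with 200 nM protein and 50 µM zinc acetate. The protein was a Ni–NTA-purified transcription factor fused N-terminally to polyhistidine and DsRed, expressed in E. coli BL21-CodonPlus.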

The chains behind the UniProt entries cited, without tags or fusion partners.
UniProt Q0JBA9, entry or part of it: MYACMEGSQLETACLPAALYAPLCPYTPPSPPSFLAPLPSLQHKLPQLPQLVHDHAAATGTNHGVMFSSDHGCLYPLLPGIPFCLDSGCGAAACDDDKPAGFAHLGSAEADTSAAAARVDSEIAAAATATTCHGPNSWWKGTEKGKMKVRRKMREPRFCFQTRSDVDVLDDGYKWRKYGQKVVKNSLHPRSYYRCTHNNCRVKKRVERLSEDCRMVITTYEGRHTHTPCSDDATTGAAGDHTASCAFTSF

Sequence | binding signal
AACCTCAATTTTGTTTGTTTTGCCTTTTGGTTCAAATACTCGGAGTCACCTAGTGCAG | 8180 fluorescence intensity (a.u.)
CTAATCACGGTCAAACTGCTTCGGTCAAACTTCACGTCCACGGAGTCACCTAGTGCAG | 11100 fluorescence intensity (a.u.)
CCGTATCTGACTGGTGTATTTTGTGATTCTTTTTTTTATGCGGAGTCACCTAGTGCAG | 12300 fluorescence intensity (a.u.)
GACCGGCTTAGCACCAACATTCCGGCTGGCCTCGCCCAATCGGAGTCACCTAGTGCAG | 8460 fluorescence intensity (a.u.)
CTCGCCATGGCCTCGCCTATGCCAACGCCTACCCACCGCGCGGAGTCACCTAGTGCAG | 9010 fluorescence intensity (a.u.)
ATGTTTATCTATGTTGAATGCCGCGACTCATTTATTAGCTCGGAGTCACCTAGTGCAG | 9000 fluorescence intensity (a.u.)
TTTAATGTATCACACCGTTAATTTTTTTTCAACGTTTGACCGGAGTCACCTAGTGCAG | 8900 fluorescence intensity (a.u.)
CGACCCACTTGCATCTCCGTTGATCCATTACAATGTTTCTCGGAGTCACCTAGTGCAG | 10800 fluorescence intensity (a.u.)
TCAAAATGTTCGACACCGTTGACTTTTTAACACATGTTTGCGGAGTCACCTAGTGCAG | 14400 fluorescence intensity (a.u.)
CCCGGCCTTCGCGCCAGTCTTCTCCATCGCCGCCGCCATCCGGAGTCACCTAGTGCAG | 8450 fluorescence intensity (a.u.)
ACATTCAGACCAGCACCAACTGCATGCAGATTTGCATCATCGGAGTCACCTAGTGCAG | 8860 fluorescence intensity (a.u.)
CTCACATTTGCACCGCACGAGGACAGGCAGCCGCTTTCAACGGAGTCACCTAGTGCAG | 10100 fluorescence intensity (a.u.)
ATGATTTTGATTTTGTGCTCTGCTCTGCCTTTTGCTCCTACGGAGTCACCTAGTGCAG | 13700 fluorescence intensity (a.u.)
GCTTCTCGTTCCGTCGTCGGCATTTCCTCCAGGATACCTGCGGAGTCACCTAGTGCAG | 8040 fluorescence intensity (a.u.)
CGTGTTGTTCTTTTTCTTCCTTCAACGCCGTAAATGGCCTCGGAGTCACCTAGTGCAG | 8660 fluorescence intensity (a.u.)
TTCCTTCGCTGTGACGTCGTTCGTTCTGGATTGGTTACACCGGAGTCACCTAGTGCAG | 9780 fluorescence intensity (a.u.)
TTTTTCATCCTTTTTTTCTCTTTCCATTTTCCTCTAGAATCGGAGTCACCTAGTGCAG | 8280 fluorescence intensity (a.u.)
ACTTTTTCTTCAAACTTCCAATTTTTCCATCACATGAAAACGGAGTCACCTAGTGCAG | 8680 fluorescence intensity (a.u.)
TGGTTGCTGCCCATACTACCCACTCACCCACCCACCAGTCCGGAGTCACCTAGTGCAG | 8510 fluorescence intensity (a.u.)
CGCTTCGCTGACGGTTGTGTGTTGGTGGGTGCAGGGGTGCCGGAGTCACCTAGTGCAG | 12700 fluorescence intensity (a.u.)
TCATTACATGATGAGGCGCCTCCTGCCATTCACCGTGCTCCGGAGTCACCTAGTGCAG | 8350 fluorescence intensity (a.u.)

Sequence | binding signal
AAAAGTCAGTTTTCGTGTTCAATGTGTTGTGTTTAATTTCCGGAGTCACCTAGTGCAG | 8570 fluorescence intensity (a.u.)
ACAGGGGCGCCTTTATTCCTGCACATCTAGGATTTGTACTCGGAGTCACCTAGTGCAG | 8150 fluorescence intensity (a.u.)
ATCGTTGTTTTGTTGCACTATAGTTAACTTAATTGTTTGACGGAGTCACCTAGTGCAG | 8520 fluorescence intensity (a.u.)
TGCCGACTTGCCGTGCTACGACACTTCATGCGTAATTTCTCGGAGTCACCTAGTGCAG | 9380 fluorescence intensity (a.u.)
CCTTTTCCCAGAGATTCCACATCCATCCAGCCCGCGGCCGCGGAGTCACCTAGTGCAG | 9060 fluorescence intensity (a.u.)
TTTTTTTTTCATCGATGCTTATTTTTTCAGCCTTTACTTTCGGAGTCACCTAGTGCAG | 8640 fluorescence intensity (a.u.)
ATATGTAGTTACTCTTTGTTTATGTGTCACCGTTGCATTCCGGAGTCACCTAGTGCAG | 8060 fluorescence intensity (a.u.)
CTTCTTTTGTCCCACAAGAACAGTACACCACACTGTCCACCGGAGTCACCTAGTGCAG | 8790 fluorescence intensity (a.u.)
GCCTTCACTGATCACCGCGATTCGGAGATTCTAATTGTTACGGAGTCACCTAGTGCAG | 10500 fluorescence intensity (a.u.)
CTTTCTTAATTGCTACTTCCTAGTTGTCTGCCTTTCTTCTCGGAGTCACCTAGTGCAG | 8340 fluorescence intensity (a.u.)
GGCCTCTCTGATGATCACGATATGGGCCTGGTGTAGTTTCCGGAGTCACCTAGTGCAG | 8140 fluorescence intensity (a.u.)
TAAACCTATTGTTAACCTTGTACATTTGTAAGGATATTTTCGGAGTCACCTAGTGCAG | 8520 fluorescence intensity (a.u.)
AGAGCAAAGAATTTCCCCACGATTTTTTTTCCTGTTTATTCGGAGTCACCTAGTGCAG | 8840 fluorescence intensity (a.u.)
CTTTCCCTTGATTTTTTGGGTTGGATGGGGAGGGTAGACGCGGAGTCACCTAGTGCAG | 12900 fluorescence intensity (a.u.)
CTGGTATCCTGTTGCCGTCTCCACCGCCACGTTCCTCCTCCGGAGTCACCTAGTGCAG | 8600 fluorescence intensity (a.u.)
ACTCCTCTTCACCCACTCCACGCCATCTCTCTCGCGCTCTCGGAGTCACCTAGTGCAG | 13700 fluorescence intensity (a.u.)
TATCGAATTCCATCCATTTTTTTGCTTTGTCCAATTCGTGCGGAGTCACCTAGTGCAG | 10100 fluorescence intensity (a.u.)
CTGCATCCTGCACGCCGCATCCGCACATAGCCACTCCACTCGGAGTCACCTAGTGCAG | 8820 fluorescence intensity (a.u.)
GCTGGGACCCACCATTTCCCCGGCCCCATCTGTCATAGGCCGGAGTCACCTAGTGCAG | 8440 fluorescence intensity (a.u.)
TTGTAGGATCAAATCAGCTAGCACGCTCTTGACACTTGAGCGGAGTCACCTAGTGCAG | 8490 fluorescence intensity (a.u.)
ATACATATAAGTTACTACTCCCACTGTTCATATTATAAGCCGGAGTCACCTAGTGCAG | 8640 fluorescence intensity (a.u.)

Sequence | binding signal
TATATTTTAATATTTTAATGTATGACGTCGTTGACTTTTTCGGAGTCACCTAGTGCAG | 13800 fluorescence intensity (a.u.)
GGGGCCTCACCAACCACGGCCGCGCTTCGCTTCTTCCTCTCGGAGTCACCTAGTGCAG | 9040 fluorescence intensity (a.u.)
ACTTCCACCTTTTCCTATTTCTCCTCTCCGTTCTCTCCGGCGGAGTCACCTAGTGCAG | 9140 fluorescence intensity (a.u.)
GCTAGTCCTATACCATTCATTGATGCTACCTACTACCGGGCGGAGTCACCTAGTGCAG | 8170 fluorescence intensity (a.u.)
GAGGCATGGAGGGCGGCGGCGGCGGCGGCGGAGGAGGAGGCGGAGTCACCTAGTGCAG | 13700 fluorescence intensity (a.u.)
CGAATTGCTTCGTCGTCCTCGCCTCCGGTCTCCGCGCGCGCGGAGTCACCTAGTGCAG | 14400 fluorescence intensity (a.u.)
TCCCGCGTCCTATTTTTTTTCTTTTACGATTTTTTTTCTTCGGAGTCACCTAGTGCAG | 10000 fluorescence intensity (a.u.)
TTGTCCATCTTCTTTCTTCTTCTTCTCCACTTACTTGTCCCGGAGTCACCTAGTGCAG | 8060 fluorescence intensity (a.u.)
ACCCACATTATCACTTGCATTTTCTCCAATTATATCATAACGGAGTCACCTAGTGCAG | 11300 fluorescence intensity (a.u.)
CTTCTGGCAATTGTCCTGTACTGCACTGGATGACCCGTTCCGGAGTCACCTAGTGCAG | 10200 fluorescence intensity (a.u.)
CCTTTTTTAGCTAGAGTGGGGTGGTTTTGCCTTTGCTGCCCGGAGTCACCTAGTGCAG | 11000 fluorescence intensity (a.u.)
GAAGTGGCGGGGCGGAGATCTCGTTGTCGATCGCGCAGCACGGAGTCACCTAGTGCAG | 9440 fluorescence intensity (a.u.)
AGGTAGAGAGGGTGACATTTTTATCTTTTTGTTTAACCGACGGAGTCACCTAGTGCAG | 8430 fluorescence intensity (a.u.)
TTCATCATGTCATGAGGTGGCATTCTAGTGATTATTGCGACGGAGTCACCTAGTGCAG | 8640 fluorescence intensity (a.u.)
CGCGTCGCGTTCCCATTTTGACTTGCCTTTCCTAGACTCTCGGAGTCACCTAGTGCAG | 8550 fluorescence intensity (a.u.)
TAGTATGTTTCTTTGTCCCTGTAGACCTGATTACTAACCTCGGAGTCACCTAGTGCAG | 9520 fluorescence intensity (a.u.)
ATCTGTCTGTCTGTCTGTCTGTTCTGTTGTATCCTTTCTTCGGAGTCACCTAGTGCAG | 12000 fluorescence intensity (a.u.)
ACGTGGCTTGGCTTATTTTTTTCCCTTACGTAGTCTCTCGCGGAGTCACCTAGTGCAG | 8560 fluorescence intensity (a.u.)
TACTCACAAAATAATCCTCCCTGTGCTTCTACCTGCCATTCGGAGTCACCTAGTGCAG | 8470 fluorescence intensity (a.u.)
TTCCAGACAAGTACTCCATTCCATTTTCCTCTCCATCGCGCGGAGTCACCTAGTGCAG | 8600 fluorescence intensity (a.u.)
ACCCACATATACTAGTACACATGGCCACGTCAGCTCCATTCGGAGTCACCTAGTGCAG | 8990 fluorescence intensity (a.u.)

Quoted at random: 2 records from the list, in no set order.
Sequence | binding signal
TACTCACAAAATAATCCTCCCTGTGCTTCTACCTGCCATTCGGAGTCACCTAGTGCAG | 8470 fluorescence intensity (a.u.)
GAGGCATGGAGGGCGGCGGCGGCGGCGGCGGAGGAGGAGGCGGAGTCACCTAGTGCAG | 13700 fluorescence intensity (a.u.)

Next part.

Sequence | binding signal
TTTTATCTTTTCCAATGAACTTTTCCGTCATTTTTTTATTCGGAGTCACCTAGTGCAG | 8100 fluorescence intensity (a.u.)
AATTCACACATTCATCTGCTTGCTGAGTACCAGTATAAATCGGAGTCACCTAGTGCAG | 9310 fluorescence intensity (a.u.)
CAAACCTGTCTGCATGCATGTCTGTCTGCACTCTGCATCCCGGAGTCACCTAGTGCAG | 8610 fluorescence intensity (a.u.)
CCGCATCTTATTGTACTCGCTCTTATTTCATAGCATCATCCGGAGTCACCTAGTGCAG | 9390 fluorescence intensity (a.u.)
TTGTGGGTTGACTTCAATTTATAGGTGAGTATTGCGAGTTCGGAGTCACCTAGTGCAG | 10800 fluorescence intensity (a.u.)
CAGTCAGGTAGCAGTGTAGCACTTGTCTTCTACGGCACTACGGAGTCACCTAGTGCAG | 8410 fluorescence intensity (a.u.)
AACCTATCTTCTTGCTAGCCTCCTCGAATCTCGGGGACGACGGAGTCACCTAGTGCAG | 8190 fluorescence intensity (a.u.)
CCCGATGCGCTCGGCACTCTCTGTGCGGTGGGGAAAATTGCGGAGTCACCTAGTGCAG | 9030 fluorescence intensity (a.u.)
GATATTTGCTACTAGTACCGCTGACTGCAGTTGCCCTTCTCGGAGTCACCTAGTGCAG | 9470 fluorescence intensity (a.u.)
TCCCGTGTTTTCCTGCGTTTTACAATCCTCTGTTTTACACCGGAGTCACCTAGTGCAG | 8260 fluorescence intensity (a.u.)
GGATGAGCTCTTCATCCTCGCCTGCTTCTGATCATTCTTCCGGAGTCACCTAGTGCAG | 8100 fluorescence intensity (a.u.)
GCTGACATGTGGGCCCACTGTTTTTAATTTTTCCAAGATACGGAGTCACCTAGTGCAG | 8180 fluorescence intensity (a.u.)
ATCGACGTCGCGACAACGCTAGGGTTTGGCACGGGCGGGGCGGAGTCACCTAGTGCAG | 9490 fluorescence intensity (a.u.)
ATCCTCTGTTTTACACTTACATTCCTATCAAAATCCTACGCGGAGTCACCTAGTGCAG | 11600 fluorescence intensity (a.u.)
GCTATCTTTACCTGTGTTACATTGCCAGCAGTTACATTCTCGGAGTCACCTAGTGCAG | 8770 fluorescence intensity (a.u.)
TTCGGGCATACGCCACCCCGCCTTGTCATCCACCGCGCCCCGGAGTCACCTAGTGCAG | 8470 fluorescence intensity (a.u.)
TTTCTGTCTACATTACCACCGCCTGTGCCTCCGCCGCGGCCGGAGTCACCTAGTGCAG | 12400 fluorescence intensity (a.u.)
TTTTGGGATGTGTTTTCTTATTTTTCTTATGCATGTAGCACGGAGTCACCTAGTGCAG | 8730 fluorescence intensity (a.u.)
TATGGATCTCATGCAATTTCTTTCTGCTTTTCTAGGATATCGGAGTCACCTAGTGCAG | 8650 fluorescence intensity (a.u.)
GTTTTGTTGTTCTTTGTCATATATGTGGTTGGTTCCTACCCGGAGTCACCTAGTGCAG | 9610 fluorescence intensity (a.u.)
TGTTAATTTTTGATCTGCTACACTGGTGCCTGTTTCTACACGGAGTCACCTAGTGCAG | 8620 fluorescence intensity (a.u.)

Some of the entries so far, field by field:
ACTTTTTCTTCAAACTTCCAATTTTTCCATCACATGAAAACGGAGTCACCTAGTGCAG
  binding signal = 8680 fluorescence intensity (a.u.)
TGGTTGCTGCCCATACTACCCACTCACCCACCCACCAGTCCGGAGTCACCTAGTGCAG
  binding signal = 8510 fluorescence intensity (a.u.)

Source: paper PMC7819943, “Rice protein-binding microarrays: a tool to detect cis-acting elements near promoter regions in rice”
